# Results from paper PMC5072578.
# By UniProt entry, the sequences of proteins in these tests, tags left out.
# UniProt P42224: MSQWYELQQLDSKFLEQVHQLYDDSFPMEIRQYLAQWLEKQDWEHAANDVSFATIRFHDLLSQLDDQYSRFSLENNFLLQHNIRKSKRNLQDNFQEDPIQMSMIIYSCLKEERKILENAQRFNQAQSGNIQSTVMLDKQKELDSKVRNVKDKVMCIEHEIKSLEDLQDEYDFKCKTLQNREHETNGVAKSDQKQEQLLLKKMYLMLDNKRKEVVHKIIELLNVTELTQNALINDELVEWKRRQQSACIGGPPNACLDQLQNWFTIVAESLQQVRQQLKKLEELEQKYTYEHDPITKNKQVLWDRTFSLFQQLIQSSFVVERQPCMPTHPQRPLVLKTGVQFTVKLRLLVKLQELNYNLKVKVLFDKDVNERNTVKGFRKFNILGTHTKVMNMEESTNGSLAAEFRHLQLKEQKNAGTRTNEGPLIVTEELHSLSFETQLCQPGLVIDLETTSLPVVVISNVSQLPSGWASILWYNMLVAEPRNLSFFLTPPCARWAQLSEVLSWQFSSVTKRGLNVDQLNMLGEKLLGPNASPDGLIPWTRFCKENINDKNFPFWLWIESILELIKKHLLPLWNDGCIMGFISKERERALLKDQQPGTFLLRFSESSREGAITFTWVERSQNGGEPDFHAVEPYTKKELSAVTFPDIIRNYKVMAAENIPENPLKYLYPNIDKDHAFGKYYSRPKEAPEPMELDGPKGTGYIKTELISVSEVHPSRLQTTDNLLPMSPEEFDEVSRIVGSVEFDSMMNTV
# Molecular target: T1, Flag-NLK (Nemo-like kinase) (mouse) (UniProt O54949)
# T1 sequence: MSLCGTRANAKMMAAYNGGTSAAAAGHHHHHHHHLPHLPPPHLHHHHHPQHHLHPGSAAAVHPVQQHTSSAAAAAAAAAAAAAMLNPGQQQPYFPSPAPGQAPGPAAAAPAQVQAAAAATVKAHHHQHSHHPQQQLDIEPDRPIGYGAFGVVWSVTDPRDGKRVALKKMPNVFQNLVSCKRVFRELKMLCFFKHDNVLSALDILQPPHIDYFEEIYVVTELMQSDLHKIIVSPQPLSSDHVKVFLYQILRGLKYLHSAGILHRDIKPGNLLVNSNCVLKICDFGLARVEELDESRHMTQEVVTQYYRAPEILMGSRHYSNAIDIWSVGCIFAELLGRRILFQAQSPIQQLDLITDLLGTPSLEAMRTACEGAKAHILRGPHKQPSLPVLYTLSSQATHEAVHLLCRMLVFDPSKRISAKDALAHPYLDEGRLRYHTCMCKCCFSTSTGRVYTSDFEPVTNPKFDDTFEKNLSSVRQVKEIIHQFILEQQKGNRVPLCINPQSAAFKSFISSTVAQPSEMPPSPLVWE
# Assay: affinity purification with mass spectrometry; lysate of HEK293 cells transfected with Flag-NLK (20 mM HEPES pH 7.4, 0.5% Triton X-100, 150 mM NaCl, 1 mM EDTA); anti-Flag M2 magnetic beads, 1 hour at room temperature; SDS-PAGE, silver staining, unique proteins identified by mass spectrometry; control: empty Flag plasmid
substance,measurement,value
"Stat1 (endogenous, HEK293 cells) (from UniProt P42224 1-750)",binding,binds

# No constants are given. Whether binding was seen depends on the method and setting. In cells and extracts the contact can be indirect. A yes stands for co-enrichment or nearness to the bait. Other partners may have been found. Sequences can lack the tags named with a protein.
